# Measured values published in the supplement of paper PMC12370961.
# Key:
# Experiment in all cases: differential drug sensitivity score (dDSS) relative to sarcoma reference cohort mean DSS (DSS units (0-100 scale difference)); higher = more selective sensitivity than reference sarcomas
# Conditions in all cases: exposure time: 72 h; concentration range: 10-10000 nM
# ES-ZH016 = test system: ES-ZH016 (patient-derived Ewing sarcoma tumoroid)
# Protocol: (§1)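 Drug response profiling of patient-derived Ewing sarcoma and CIC::DUX4 sarcoma tumoroid models (or cells tested directly after isolation from the tumor, 'direct'). The DSS is the normalised AUC (0-100); dDSS is the sample DSS minus the mean DSS of a 34-sarcoma reference cohort profiled in the same lab.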
# ES-ZH002 = test system: ES-ZH002 (patient-derived Ewing sarcoma tumoroid)
# Protocol: as §1
# ES-ZH001 = test system: ES-ZH001 (patient-derived Ewing sarcoma tumoroid)
# Protocol: as §1
# CDS-ZH003 = test system: CDS-ZH003 (patient-derived CIC-DUX4 sarcoma tumoroid)
# Protocol: as §1
# ES-ZH007 = test system: ES-ZH007 (patient-derived Ewing sarcoma tumoroid)
# Protocol: as §1
# CDS-ZH001 = test system: CDS-ZH001 (patient-derived CIC-DUX4 sarcoma tumoroid)
# Protocol: as §1
# CDS-ZH001-2 = test system: CDS-ZH001-2 (patient-derived CIC-DUX4 sarcoma tumoroid)
# Protocol: as §1
# CDS-ZH002 = test system: CDS-ZH002 (patient-derived CIC-DUX4 sarcoma tumoroid)
# Protocol: as §1
# CDS-ZH002 direct = test system: CDS-ZH002 direct (CIC-DUX4 sarcoma cells right after isolation)
# Protocol: as §1
# ES-ZH008 = test system: ES-ZH008 (patient-derived Ewing sarcoma tumoroid)
# Protocol: as §1
# ES-ZH016 direct = test system: ES-ZH016 direct (Ewing sarcoma cells right after isolation)
# Protocol: as §1
# ES-ZH009 = test system: ES-ZH009 (patient-derived Ewing sarcoma tumoroid)
# Protocol: as §1
# ES-ZH004 = test system: ES-ZH004 (patient-derived Ewing sarcoma tumoroid)
# Protocol: as §1
smiles,measurement,setting,value
Cc1ccc(C(=O)NCCCCCC(=O)Nc2ccccc2N)cc1 [RG2833],differential drug sensitivity score,ES-ZH016,-0.2
same,differential drug sensitivity score,ES-ZH002,2.8
same,differential drug sensitivity score,ES-ZH001,1
same,differential drug sensitivity score,CDS-ZH003,-1.3
same,differential drug sensitivity score,ES-ZH007,1.8
same,differential drug sensitivity score,CDS-ZH001,-1.4
same,differential drug sensitivity score,CDS-ZH001-2,-1.5
same,differential drug sensitivity score,CDS-ZH002,-1.6
same,differential drug sensitivity score,CDS-ZH002 direct,-0.9
same,differential drug sensitivity score,ES-ZH008,3.5
same,differential drug sensitivity score,ES-ZH016 direct,3.5
same,differential drug sensitivity score,ES-ZH009,-0.6
same,differential drug sensitivity score,ES-ZH004,1.7
